Consider 22 sequences from PMC7862700.

The chains behind the UniProt entries cited, without tags or fusion partners. Where a name states a change or a piece, a line headed by the entry shows the natural chain unless it says otherwise.
UniProt P50549: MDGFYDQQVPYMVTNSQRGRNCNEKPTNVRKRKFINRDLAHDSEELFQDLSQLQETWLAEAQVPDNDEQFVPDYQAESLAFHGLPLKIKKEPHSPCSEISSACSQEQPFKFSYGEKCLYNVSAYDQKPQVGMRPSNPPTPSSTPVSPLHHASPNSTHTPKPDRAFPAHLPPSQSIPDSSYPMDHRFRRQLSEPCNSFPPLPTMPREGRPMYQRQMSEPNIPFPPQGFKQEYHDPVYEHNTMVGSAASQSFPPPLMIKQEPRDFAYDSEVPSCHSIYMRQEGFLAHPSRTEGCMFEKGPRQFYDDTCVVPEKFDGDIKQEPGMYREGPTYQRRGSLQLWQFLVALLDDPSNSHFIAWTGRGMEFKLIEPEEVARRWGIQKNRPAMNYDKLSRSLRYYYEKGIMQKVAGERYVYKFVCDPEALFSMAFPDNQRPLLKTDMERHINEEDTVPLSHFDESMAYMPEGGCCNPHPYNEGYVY
UniProt P32519: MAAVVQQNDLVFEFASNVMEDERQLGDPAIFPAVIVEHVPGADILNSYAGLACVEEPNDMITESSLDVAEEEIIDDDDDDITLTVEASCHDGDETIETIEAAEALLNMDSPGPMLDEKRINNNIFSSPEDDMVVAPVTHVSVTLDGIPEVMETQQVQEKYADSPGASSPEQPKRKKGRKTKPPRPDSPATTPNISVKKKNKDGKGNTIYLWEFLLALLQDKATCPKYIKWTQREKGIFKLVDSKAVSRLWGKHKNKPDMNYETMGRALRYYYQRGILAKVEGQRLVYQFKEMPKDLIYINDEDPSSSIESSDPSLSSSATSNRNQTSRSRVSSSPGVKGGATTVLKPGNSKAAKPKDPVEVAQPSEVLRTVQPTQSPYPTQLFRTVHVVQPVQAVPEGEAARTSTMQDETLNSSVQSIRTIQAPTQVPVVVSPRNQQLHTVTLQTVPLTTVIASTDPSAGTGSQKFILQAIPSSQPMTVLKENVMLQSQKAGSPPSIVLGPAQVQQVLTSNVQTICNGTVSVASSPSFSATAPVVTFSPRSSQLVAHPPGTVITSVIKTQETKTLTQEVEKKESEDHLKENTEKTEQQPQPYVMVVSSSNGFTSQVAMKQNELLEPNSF

Experiment in all cases: DAPPL (digital affinity profiling via proximity ligation, sequencing)
Holding throughout (conditions): 10 mM Tris-HCl pH 7.5, 50 mM NaCl, 1 mM DTT, 4% glycerol, room temperature, 30 min; GST-TFs on glutathione beads, 16-mer random dsDNA library, 0.1% …; high values mean tight binding; double strand, one strand shown; scale: fold enrichment (6-mer frequency, TF over GST control)

For one test, the target named is T1, ETV4 (UniProt P43268).
T1 sequence: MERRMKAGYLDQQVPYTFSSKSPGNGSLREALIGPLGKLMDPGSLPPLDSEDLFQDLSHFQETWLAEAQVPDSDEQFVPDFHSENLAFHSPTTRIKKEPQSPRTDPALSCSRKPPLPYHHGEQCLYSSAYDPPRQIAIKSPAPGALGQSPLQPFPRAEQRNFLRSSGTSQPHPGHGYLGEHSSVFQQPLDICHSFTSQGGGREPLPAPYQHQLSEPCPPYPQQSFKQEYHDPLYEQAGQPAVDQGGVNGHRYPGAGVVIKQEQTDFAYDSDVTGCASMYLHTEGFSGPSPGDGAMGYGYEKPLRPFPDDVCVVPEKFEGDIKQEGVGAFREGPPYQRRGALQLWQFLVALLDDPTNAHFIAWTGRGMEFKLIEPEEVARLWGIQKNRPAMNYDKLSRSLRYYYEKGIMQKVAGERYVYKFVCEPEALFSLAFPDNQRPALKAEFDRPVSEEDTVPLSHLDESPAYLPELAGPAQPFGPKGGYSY

The next test addresses ETV1 (UniProt P50549).
For the next test, the target named is T2, ERF (UniProt P50548).
T2 sequence: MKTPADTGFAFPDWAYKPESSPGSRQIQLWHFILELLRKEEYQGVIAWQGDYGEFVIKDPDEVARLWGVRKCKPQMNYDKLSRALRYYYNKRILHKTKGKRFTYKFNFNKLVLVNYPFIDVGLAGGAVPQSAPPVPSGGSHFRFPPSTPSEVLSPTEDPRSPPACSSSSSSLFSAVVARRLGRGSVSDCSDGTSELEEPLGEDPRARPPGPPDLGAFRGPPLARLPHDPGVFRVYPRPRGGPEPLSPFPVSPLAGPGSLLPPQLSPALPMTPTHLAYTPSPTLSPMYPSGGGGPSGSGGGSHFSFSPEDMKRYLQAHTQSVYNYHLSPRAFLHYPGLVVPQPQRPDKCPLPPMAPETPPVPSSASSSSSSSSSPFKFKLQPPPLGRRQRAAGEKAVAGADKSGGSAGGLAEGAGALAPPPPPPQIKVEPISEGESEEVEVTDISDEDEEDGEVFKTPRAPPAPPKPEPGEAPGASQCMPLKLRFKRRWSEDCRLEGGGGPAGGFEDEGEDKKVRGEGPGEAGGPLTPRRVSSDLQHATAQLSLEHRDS

In a further test the target is ELF1 (UniProt P32519).

The list shows a part of the results, in another mix than the full data. For part of these data: At the low end of the ranking the order means little. The list shows a part of the results. For part of these data: Construct or isoform of the protein are uncertain.

As to TGATCT, the binding signal stood at 1.36 with ETV4, 1.2 with ETV1 and 1.35 with ERF.
Regarding CCTACG, the values for the binding signal with ETV4, with ETV1 and with ERF were 1.44, 1.47 and 1.37, respectively.
Consider CGCTAG, for which the figures for the binding signal in the test with ETV4, with ETV1 and with ERF were 1.1, 1.03 and 1.08, respectively.
Turning to CGGCTA, the binding signal is 1.13 in the test with ETV4, 1.2 in the test with ETV1 and 1.07 with ERF.
With AACGAC, the binding signal with ELF1 came to 1.09; in the test with ETV4, 1.13; with ETV1, 1.15.
Taken in the same sequence, the figures for CTTATG were 1.38, 1.56 and 1.58.
On the same counts, the results for TCGAAT are 1.11, 1.04 and 1.
With TTCTTC, the binding signal is 1.87 with ETV4, 1.9 in the test with ETV1 and 1.78 with ERF.
Regarding CCGATG, the binding signal with ELF1 was found to be 0.989; with ETV4 it was 1.09; with ETV1 it was 1.1; with ERF, 1.1.
Take ATGGTT: the binding signal came to 1.39 with ELF1 and 1.42 with ETV4.
On the same counts, the results for AGGTAT are 1.04 and 1.02.
Take TCCCTC: the binding signal was 1.51 in the test with ELF1 and 1.66 with ETV4.
As for TAGCTA, the binding signal was 1.25 in the test with ELF1 and 1.33 with ETV4.
On the same counts, the results for TCCCCT are 1.74 and 1.73.
As for GTAAAA, the values for the binding signal in the test with ELF1 and with ETV4 were 1.13 and 1.16, respectively.
Take CTAAGC: the binding signal in the test with ELF1 was found to be 1.15; in the test with ETV4, 1.02.
For TTTAGG, the binding signal was 0.967 in the test with ELF1 and 1.1 with ETV4.
Consider CTCCTC, for which the binding signal came out at 1.32 in the test with ELF1 and 1.31 in the test with ETV4.
Taken in the same sequence, the figures for CTCTGG were 1.34 and 1.41.
In the case of GGAAAC, the binding signal was found to be 1.22 in the test with ELF1 and 1.33 with ETV4.
Take GTGCTC: the figures for the binding signal with ELF1 and with ETV4 were 1.19 and 1.23, respectively.
As for CTTCTG, the binding signal was found to be 1.34 with ELF1 and 1.56 in the test with ETV4.
